We go through one substance from article PMC11260460, “A Plasmodium apicoplast-targeted unique exonuclease/FEN exhibits interspecies functional differences attributable to an insertion that alters DNA-binding”.

Protein sequences, listed by entry. Tags and fused reporters are not part of them. Lines headed by an entry give the natural chain unless they say otherwise; changes in a name come on top.
UniProt Q8ILY1: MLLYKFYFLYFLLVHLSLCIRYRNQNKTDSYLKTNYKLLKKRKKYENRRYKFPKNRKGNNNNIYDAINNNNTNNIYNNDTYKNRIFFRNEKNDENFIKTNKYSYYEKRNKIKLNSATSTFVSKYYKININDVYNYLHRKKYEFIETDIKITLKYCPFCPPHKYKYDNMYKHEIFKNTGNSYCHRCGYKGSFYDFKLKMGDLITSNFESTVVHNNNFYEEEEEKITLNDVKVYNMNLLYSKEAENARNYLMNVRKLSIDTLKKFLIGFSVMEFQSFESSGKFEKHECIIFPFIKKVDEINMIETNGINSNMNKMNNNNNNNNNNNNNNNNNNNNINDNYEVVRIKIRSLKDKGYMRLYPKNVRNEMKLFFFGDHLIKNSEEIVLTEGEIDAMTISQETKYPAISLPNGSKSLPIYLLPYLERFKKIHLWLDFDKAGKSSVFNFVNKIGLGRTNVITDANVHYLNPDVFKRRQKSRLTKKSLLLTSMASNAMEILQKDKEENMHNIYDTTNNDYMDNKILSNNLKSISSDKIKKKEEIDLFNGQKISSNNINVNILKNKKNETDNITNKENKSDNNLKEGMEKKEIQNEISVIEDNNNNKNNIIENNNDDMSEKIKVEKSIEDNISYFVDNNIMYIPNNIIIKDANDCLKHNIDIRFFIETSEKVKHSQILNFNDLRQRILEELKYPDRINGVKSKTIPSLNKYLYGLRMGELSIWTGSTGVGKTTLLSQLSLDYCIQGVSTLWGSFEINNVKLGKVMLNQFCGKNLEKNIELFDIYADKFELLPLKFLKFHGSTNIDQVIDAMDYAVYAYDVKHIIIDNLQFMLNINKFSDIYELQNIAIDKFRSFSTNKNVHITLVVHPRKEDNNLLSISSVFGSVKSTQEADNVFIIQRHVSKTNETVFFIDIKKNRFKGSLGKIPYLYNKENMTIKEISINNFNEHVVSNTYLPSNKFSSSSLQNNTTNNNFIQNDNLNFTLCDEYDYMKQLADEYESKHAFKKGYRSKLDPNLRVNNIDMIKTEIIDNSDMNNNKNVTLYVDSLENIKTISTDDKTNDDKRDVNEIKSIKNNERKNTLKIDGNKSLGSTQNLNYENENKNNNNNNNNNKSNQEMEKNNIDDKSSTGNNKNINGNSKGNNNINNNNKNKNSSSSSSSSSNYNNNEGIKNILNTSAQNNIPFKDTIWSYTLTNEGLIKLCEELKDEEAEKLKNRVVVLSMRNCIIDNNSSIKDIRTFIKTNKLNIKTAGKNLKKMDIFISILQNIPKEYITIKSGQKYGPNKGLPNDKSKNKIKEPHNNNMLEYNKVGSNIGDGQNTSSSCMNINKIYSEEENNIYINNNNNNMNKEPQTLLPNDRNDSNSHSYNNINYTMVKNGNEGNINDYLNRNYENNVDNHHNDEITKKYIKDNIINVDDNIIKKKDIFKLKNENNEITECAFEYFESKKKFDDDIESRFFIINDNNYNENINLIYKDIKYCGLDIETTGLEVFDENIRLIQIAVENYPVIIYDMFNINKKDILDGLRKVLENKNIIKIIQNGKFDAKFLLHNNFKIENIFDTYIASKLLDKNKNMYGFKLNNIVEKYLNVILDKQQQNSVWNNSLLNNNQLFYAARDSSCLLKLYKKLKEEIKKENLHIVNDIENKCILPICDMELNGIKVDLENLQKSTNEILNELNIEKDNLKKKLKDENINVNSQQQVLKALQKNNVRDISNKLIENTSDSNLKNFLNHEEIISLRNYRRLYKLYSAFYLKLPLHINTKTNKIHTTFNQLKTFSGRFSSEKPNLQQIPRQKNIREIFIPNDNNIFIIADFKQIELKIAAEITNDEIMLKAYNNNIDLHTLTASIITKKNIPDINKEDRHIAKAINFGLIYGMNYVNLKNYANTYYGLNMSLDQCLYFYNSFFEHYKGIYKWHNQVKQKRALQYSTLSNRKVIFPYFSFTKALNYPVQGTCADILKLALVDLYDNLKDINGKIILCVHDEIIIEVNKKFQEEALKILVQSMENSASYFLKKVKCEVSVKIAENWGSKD

These are yes or no findings as the source states them, for the method shown. Binding can be weak; no strength is given.

The assay deals with N-terminal glutathione S-transferase (GST)-tagged PfExo (91-577 amino acids) (P. falciparum 3D7) (UniProt O96139). The experiment in a line: pull-down; 30 μg GST-PfExo or GST bound to glutathione agarose beads as bait; 30 μg purified PfPrex Exo/Pol added in 1 ml binding buffer (50 mM Tris-HCl pH 8.0, 150 mM NaCl, 1 mM EDTA), overnight at 4°C; eluted with 50 mM reduced glutathione; western blot with anti-6XHis and anti-GST; both purified. A general note: In western blotting, separated proteins are transferred to a membrane and probed.

Turning to “Recombinant PfPrex Exo/Pol domain (residues 1360-2016), C-terminal 6XHis (from UniProt Q8ILY1) (domain or fragment)”, the binding entry was “binds”.
